Test results as given in article PMC7910457.
Results are given in words; binding and its absence hold for the method and conditions named. Binding seen in cells or lysates may run through a third protein. Some entries that bind do so weakly or less than the wild type. Sequences can lack the tags named with a protein.

Amino acid sequences for entries named in this document (tags omitted).
UniProt O43581: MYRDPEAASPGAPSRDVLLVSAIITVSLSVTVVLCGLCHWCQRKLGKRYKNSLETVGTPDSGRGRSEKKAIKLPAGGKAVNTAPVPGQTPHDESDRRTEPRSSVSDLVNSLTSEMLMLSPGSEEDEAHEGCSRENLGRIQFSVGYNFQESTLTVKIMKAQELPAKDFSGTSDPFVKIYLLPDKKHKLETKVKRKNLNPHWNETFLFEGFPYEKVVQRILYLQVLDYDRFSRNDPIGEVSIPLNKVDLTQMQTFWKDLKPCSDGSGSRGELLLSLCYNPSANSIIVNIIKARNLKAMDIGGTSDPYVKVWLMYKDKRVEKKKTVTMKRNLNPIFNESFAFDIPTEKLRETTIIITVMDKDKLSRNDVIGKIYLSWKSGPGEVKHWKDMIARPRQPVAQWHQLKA

Molecular target: Syt7-mCherry (UniProt O43581)
Assay: co-IP; 293 T cells transfected with HA-Esyt1 and Syt7 plasmids; immunoprecipitation with anti-mCherry antibody, precipitates analysed with anti-HA antibody

B1: HA-Esyt1 (protein, UniProt Q9BSJ8 1-1104)
chain: MERSPGEGPSPSPMDQPSAPSDPTDQPPAAHAKPDPGSGGQPAGPGAAGEALAVLTSFGRRLLVLIPVYLAGAVGLSVGFVLFGLALYLGWRRVRDEKERSLRAARQLLDDEEQLTAKTLYMSHRELPAWVSFPDVEKAEWLNKIVAQVWPFLGQYMEKLLAETVAPAVRGSNPHLQTFTFTRVELGEKPLRIIGVKVHPGQRKEQILLDLNISYVGDVQIDVEVKKYFCKAGVKGMQLHGVLRVILEPLIGDLPFVGAVSMFFIRRPTLDINWTGMTNLLDIPGLSSLSDTMIMDSIAAFLVLPNRLLVPLVPDLQDVAQLRSPLPRGIIRIHLLAARGLSSKDKYVKGLIEGKSDPYALVRLGTQTFCSRVIDEELNPQWGETYEVMVHEVPGQEIEVEVFDKDPDKDDFLGRMKLDVGKVLQASVLDDWFPLQGGQGQVHLRLEWLSLLSDAEKLEQVLQWNWGVSSRPDPPSAAILVVYLDRAQDLPLKKGNKEPNPMVQLSIQDVTQESKAVYSTNCPVWEEAFRFFLQDPQSQELDVQVKDDSRALTLGALTLPLARLLTAPELILDQWFQLSSSGPNSRLYMKLVMRILYLDSSEICFPTVPGCPGAWDVDSENPQRGSSVDAPPRPCHTTPDSQFGTEHVLRIHVLEAQDLIAKDRFLGGLVKGKSDPYVKLKLAGRSFRSHVVREDLNPRWNEVFEVIVTSVPGQELEVEVFDKDLDKDDFLGRCKVRLTTVLNSGFLDEWLTLEDVPSGRLHLRLERLTPRPTAAELEEVLQVNSLIQTQKSAELAAALLSIYMERAEDLPLRKGTKHLSPYATLTVGDSSHKTKTISQTSAPVWDESASFLIRKPHTESLELQVRGEGTGVLGSLSLPLSELLVADQLCLDRWFTLSSGQGQVLLRAQLGILVSQHSGVEAHSHSYSHSSSSLSEEPELSGGPPHITSSAPELRQRLTHVDSPLEAPAGPLGQVKLTLWYYSEERKLVSIVHGCRSLRQNGRDPPDPYVSLLLLPDKNRGTKRRTSQKKRTLSPEFNERFEWELPLDEAQRRKLDVSVKSNSSFMSRERELLGKVQLDLAETDLSQGVARWYDLMDNKDKGSS
  binding: binds
